Reference: article PMC12772958

Sequences of proteins named here, by UniProt entry; tags and fusion partners are left off.
UniProt Q96B97: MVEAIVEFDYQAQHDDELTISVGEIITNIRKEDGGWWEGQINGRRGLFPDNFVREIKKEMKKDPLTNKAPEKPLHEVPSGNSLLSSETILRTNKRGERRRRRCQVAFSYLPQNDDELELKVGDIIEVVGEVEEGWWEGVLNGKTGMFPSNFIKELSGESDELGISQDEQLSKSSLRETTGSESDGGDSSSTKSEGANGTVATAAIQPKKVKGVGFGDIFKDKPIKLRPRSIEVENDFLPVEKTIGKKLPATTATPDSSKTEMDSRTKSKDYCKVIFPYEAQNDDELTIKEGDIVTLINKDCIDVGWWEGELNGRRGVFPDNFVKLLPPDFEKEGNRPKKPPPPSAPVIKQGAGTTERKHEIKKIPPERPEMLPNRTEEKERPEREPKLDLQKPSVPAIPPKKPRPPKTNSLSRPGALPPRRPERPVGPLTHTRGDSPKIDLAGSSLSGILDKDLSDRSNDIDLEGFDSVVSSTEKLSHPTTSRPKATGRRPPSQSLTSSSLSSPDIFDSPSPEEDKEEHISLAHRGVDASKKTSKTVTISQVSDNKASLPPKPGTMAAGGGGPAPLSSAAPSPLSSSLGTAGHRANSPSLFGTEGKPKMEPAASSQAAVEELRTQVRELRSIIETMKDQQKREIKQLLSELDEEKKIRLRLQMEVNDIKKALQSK
UniProt P46939: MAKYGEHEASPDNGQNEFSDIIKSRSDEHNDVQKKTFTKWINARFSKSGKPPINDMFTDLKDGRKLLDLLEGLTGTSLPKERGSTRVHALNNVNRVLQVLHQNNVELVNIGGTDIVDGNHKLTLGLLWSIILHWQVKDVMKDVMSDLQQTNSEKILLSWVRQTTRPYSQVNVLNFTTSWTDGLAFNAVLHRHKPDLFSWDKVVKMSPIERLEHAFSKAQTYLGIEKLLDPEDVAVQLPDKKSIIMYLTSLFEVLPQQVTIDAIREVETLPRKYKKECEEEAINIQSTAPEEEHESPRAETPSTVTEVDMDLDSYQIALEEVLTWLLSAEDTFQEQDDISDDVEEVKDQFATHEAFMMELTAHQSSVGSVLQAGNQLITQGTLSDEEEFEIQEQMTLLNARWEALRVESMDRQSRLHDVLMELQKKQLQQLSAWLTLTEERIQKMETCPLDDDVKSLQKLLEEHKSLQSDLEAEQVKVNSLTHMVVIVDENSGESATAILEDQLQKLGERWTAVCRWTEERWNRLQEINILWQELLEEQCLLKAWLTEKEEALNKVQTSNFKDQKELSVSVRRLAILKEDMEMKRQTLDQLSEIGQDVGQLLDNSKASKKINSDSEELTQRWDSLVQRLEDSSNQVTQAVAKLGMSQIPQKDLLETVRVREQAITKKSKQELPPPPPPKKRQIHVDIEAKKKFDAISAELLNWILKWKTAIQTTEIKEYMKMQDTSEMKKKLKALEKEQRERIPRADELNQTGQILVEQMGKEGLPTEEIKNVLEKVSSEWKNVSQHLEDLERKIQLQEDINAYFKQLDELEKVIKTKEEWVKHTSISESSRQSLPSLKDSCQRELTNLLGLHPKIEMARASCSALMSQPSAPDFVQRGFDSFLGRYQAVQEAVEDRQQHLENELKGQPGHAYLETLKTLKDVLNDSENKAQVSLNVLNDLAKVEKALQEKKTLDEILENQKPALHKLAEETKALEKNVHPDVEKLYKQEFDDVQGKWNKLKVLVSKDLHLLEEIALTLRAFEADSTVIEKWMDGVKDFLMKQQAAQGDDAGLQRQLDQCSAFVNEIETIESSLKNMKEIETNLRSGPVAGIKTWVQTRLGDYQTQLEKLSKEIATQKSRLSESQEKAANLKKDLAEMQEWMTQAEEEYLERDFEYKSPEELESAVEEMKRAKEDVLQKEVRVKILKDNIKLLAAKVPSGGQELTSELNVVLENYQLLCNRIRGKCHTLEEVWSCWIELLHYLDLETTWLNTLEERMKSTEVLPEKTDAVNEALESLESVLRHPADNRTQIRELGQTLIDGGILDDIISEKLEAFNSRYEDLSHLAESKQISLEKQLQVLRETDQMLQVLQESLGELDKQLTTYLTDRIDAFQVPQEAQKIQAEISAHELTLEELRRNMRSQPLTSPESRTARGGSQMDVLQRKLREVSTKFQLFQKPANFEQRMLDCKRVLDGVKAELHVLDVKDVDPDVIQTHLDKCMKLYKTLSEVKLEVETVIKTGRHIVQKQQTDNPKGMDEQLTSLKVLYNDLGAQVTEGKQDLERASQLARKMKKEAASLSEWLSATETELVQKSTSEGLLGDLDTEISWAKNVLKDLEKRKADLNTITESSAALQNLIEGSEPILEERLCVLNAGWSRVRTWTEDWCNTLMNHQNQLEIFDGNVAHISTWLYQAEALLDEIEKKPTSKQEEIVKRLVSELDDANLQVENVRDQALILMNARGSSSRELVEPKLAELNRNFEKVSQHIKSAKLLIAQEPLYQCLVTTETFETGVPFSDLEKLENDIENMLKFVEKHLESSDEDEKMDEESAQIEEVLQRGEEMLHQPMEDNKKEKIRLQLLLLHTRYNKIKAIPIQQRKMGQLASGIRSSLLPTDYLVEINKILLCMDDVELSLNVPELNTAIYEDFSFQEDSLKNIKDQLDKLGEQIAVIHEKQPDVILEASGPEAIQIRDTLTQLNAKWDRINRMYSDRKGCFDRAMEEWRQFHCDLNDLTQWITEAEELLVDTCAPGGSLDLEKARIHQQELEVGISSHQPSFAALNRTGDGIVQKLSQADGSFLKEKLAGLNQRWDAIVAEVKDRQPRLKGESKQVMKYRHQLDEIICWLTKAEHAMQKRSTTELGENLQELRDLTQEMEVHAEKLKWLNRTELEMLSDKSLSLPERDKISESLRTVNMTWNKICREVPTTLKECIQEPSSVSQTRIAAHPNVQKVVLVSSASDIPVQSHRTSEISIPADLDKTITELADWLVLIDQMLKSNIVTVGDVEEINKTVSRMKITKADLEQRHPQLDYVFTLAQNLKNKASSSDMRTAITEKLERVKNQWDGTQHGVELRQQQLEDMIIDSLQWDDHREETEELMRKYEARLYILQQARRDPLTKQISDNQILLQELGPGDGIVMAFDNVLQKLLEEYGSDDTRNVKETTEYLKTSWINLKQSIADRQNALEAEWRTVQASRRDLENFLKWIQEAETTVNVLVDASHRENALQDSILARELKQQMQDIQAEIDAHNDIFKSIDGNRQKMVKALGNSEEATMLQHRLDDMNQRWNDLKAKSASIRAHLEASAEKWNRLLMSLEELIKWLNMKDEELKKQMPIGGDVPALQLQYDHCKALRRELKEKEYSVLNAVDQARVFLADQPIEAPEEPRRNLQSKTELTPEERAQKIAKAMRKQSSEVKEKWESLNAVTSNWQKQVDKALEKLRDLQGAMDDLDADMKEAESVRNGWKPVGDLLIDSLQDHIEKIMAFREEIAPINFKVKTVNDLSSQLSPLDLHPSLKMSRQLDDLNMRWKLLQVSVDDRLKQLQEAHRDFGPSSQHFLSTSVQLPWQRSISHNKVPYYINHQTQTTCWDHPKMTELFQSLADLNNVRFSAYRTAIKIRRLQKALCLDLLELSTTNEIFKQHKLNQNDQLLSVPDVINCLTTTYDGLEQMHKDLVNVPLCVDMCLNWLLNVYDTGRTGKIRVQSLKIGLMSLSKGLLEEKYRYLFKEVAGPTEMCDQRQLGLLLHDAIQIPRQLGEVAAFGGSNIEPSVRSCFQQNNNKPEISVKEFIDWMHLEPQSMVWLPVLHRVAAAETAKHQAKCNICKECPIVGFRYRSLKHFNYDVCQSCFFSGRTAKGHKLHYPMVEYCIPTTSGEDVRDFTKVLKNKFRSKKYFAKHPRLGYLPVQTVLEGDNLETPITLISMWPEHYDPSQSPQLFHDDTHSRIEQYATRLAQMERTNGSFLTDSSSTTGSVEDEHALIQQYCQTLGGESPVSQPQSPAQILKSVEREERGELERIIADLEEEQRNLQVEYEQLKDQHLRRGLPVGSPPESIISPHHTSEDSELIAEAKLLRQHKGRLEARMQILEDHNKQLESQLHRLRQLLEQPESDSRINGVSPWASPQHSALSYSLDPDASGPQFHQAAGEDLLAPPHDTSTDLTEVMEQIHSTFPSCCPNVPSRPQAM
UniProt Q96AC1: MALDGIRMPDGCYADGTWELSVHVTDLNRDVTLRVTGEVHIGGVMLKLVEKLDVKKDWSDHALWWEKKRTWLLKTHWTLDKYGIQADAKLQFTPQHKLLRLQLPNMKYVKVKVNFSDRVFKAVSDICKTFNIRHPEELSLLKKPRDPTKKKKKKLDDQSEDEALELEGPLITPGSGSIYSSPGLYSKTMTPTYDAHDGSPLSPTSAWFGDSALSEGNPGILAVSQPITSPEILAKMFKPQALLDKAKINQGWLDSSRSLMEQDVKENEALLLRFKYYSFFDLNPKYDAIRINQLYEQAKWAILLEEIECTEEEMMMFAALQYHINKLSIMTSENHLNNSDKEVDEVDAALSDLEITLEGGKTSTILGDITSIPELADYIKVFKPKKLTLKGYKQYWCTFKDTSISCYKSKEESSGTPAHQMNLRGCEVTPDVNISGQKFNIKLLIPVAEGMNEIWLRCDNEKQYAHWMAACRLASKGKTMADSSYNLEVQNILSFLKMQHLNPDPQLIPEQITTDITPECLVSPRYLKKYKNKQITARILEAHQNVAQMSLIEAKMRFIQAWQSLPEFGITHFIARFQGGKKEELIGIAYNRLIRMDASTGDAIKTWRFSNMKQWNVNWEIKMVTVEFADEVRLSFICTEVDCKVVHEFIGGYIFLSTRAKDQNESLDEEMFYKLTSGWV

Experiments:
[1] = target: T1, BirA*–MYO1F tail (human) (UniProt O00160); assay: proximity labelling; BioID in U937 cells stably expressing BirA*–MYO1F tail, PHmut or ΔSH3; 50 µM biotin for 24 h; RIPA lysis; streptavidin beads; mass spectrometry, LFQ against BirA*-only control, threshold 4-fold or greater enrichment
T1 sequence: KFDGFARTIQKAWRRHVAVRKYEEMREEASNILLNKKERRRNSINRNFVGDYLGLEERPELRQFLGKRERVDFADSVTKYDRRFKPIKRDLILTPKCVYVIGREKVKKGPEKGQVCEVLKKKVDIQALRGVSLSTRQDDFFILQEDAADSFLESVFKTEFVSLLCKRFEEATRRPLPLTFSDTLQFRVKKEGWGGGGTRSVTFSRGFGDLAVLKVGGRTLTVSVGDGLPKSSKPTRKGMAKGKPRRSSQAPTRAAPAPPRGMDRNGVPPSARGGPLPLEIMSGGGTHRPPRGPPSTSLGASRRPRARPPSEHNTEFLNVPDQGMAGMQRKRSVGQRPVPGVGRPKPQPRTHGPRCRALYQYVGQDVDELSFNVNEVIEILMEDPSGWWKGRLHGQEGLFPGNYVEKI

[2] = target: T2, BirA*–MYO1F tail PHmut (human) (UniProt O00160); assay: as above
T2 sequence: T1 sequence with K79A, R89A

[3] = target: T3, BirA*–MYO1E tail (human) (UniProt Q12965); assay: proximity labelling; BioID in RPE cells stably expressing BirA*–MYO1E tail; biotin labelling; streptavidin pulldown; mass spectrometry, LFQ against BirA*-only control, threshold 4.5-fold or greater enrichment
T3 sequence: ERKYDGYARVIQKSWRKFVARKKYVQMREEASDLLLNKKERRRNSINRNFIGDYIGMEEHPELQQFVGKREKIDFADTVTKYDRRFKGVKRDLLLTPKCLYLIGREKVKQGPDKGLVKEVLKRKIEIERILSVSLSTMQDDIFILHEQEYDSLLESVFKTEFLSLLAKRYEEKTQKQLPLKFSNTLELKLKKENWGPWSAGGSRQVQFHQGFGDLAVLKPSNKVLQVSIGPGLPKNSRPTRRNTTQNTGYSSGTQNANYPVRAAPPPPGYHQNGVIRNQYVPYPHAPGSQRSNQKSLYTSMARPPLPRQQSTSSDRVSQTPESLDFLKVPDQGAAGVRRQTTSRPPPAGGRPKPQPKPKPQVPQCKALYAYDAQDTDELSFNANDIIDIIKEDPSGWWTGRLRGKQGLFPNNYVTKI

[4] = target: T1, BirA*–MYO1F tail (human); assay: proximity labelling; BioID in U937 cells stably expressing BirA*–MYO1F tail, PHmut or ΔSH3; 50 µM biotin for 24 h; RIPA lysis; streptavidin beads; mass spectrometry, LFQ against BirA*-only control, threshold 4-fold or greater enrichment; remark: listed apart in the source
[5] = target: T2, BirA*–MYO1F tail PHmut (human); assay: as above; remark: listed apart in the source

Molecule: SH3 domain-containing kinase-binding protein 1 (SH3KBP1) (from UniProt Q96B97 1-665)
- binding [1]: binds
- binding [2]: binds

Molecule: utrophin (UTRN) (from UniProt P46939 1-3433)
- binding [1]: binds
- binding [2]: binds

Molecule: FERMT2 (from UniProt Q96AC1 1-680)
- binding [3]: binds

B1: ITGA6 (integrin alpha-6) (protein, UniProt P23229 24-1130)
chain: FNLDTREDNVIRKYGDPGSLFGFSLAMHWQLQPEDKRLLLVGAPRAEALPLQRANRTGGLYSCDITARGPCTRIEFDNDADPTSESKEDQWMGVTVQSQGPGGKVVTCAHRYEKRQHVNTKQESRDIFGRCYVLSQNLRIEDDMDGGDWSFCDGRLRGHEKFGSCQQGVAATFTKDFHYIVFGAPGTYNWKGIVRVEQKNNTFFDMNIFEDGPYEVGGETEHDESLVPVPANSYLGLLFLTSVSYTDPDQFVYKTRPPREQPDTFPDVMMNSYLGFSLDSGKGIVSKDEITFVSGAPRANHSGAVVLLKRDMKSAHLLPEHIFDGEGLASSFGYDVAVVDLNKDGWQDIVIGAPQYFDRDGEVGGAVYVYMNQQGRWNNVKPIRLNGTKDSMFGIAVKNIGDINQDGYPDIAVGAPYDDLGKVFIYHGSANGINTKPTQVLKGISPYFGYSIAGNMDLDRNSYPDVAVGSLSDSVTIFRSRPVINIQKTITVTPNRIDLRQKTACGAPSGICLQVKSCFEYTANPAGYNPSISIVGTLEAEKERRKSGLSSRVQFRNQGSEPKYTQELTLKRQKQKVCMEETLWLQDNIRDKLRPIPITASVEIQEPSSRRRVNSLPEVLPILNSDEPKTAHIDVHFLKEGCGDDNVCNSNLKLEYKFCTREGNQDKFSYLPIQKGVPELVLKDQKDIALEITVTNSPSNPRNPTKDGDDAHEAKLIATFPDTLTYSAYRELRAFPEKQLSCVANQNGSQADCELGNPFKRNSNVTFYLVLSTTEVTFDTPDLDINLKLETTSNQDNLAPITAKAKVVIELLLSVSGVAKPSQVYFGGTVVGEQAMKSEDEVGSLIEYEFRVINLGKPLTNLGTATLNIQWPKEISNGKWLLYLVKVESKGLEKVTCEPQKEINSLNLTESHNSRKKREITEKQIDDNRKFSLFAERKYQTLNCSVNVNCVNIRCPLRGLDSKASLILRSRLWNSTFLEEYSKLNYLDILMRAFIDVTAAAENIRLPNAGTQVRVTVFPSKTVAQYSGVPWWIILVAILAGILMLALLVFILWKCGFFKRSRYDDSVPRYHAVRIRKEEREIKDEKYIDNLEKKQWITKWNENESYS
- binding [4]: binds
- binding [5]: binds

B2: CDC42EP1 (protein, UniProt Q00587 1-391)
chain: MPGPQGGRGAATMSLGKLSPVGWVSSSQGKRRLTADMISHPLGDFRHTMHVGRGGDVFGDTSFLSNHGGSSGSTHRSPRSFLAKKLQLVRRVGAPPRRMASPPAPSPAPPAISPIIKNAISLPQLNQAAYDSLVVGKLSFDSSPTSSTDGHSSYGLDSGFCTISRLPRSEKPHDRDRDGSFPSEPGLRRSDSLLSFRLDLDLGPSLLSELLGVMSLPEAPAAETPAPAANPPAPTANPTGPAANPPATTANPPAPAANPSAPAATPTGPAANPPAPAASSTPHGHCPNGVTAGLGPVAEVKSSPVGGGPRGPAGPALGRHWGAGWDGGHHYPEMDARQERVEVLPQARASWESLDEEWRAPQAGSRTPVPSTVQANTFEFADAEEDDEVKV
- binding [3]: binds

Residue numbers refer to the chain shown, from its start. Read-outs that look alike come from different tables or passages of the source. Results are given in words; binding and its absence hold for the method and conditions named. In cells and extracts the contact can be indirect. These calls come from enrichment with a bait or labelling near it, and not all partners need be listed.
